Experimental findings from patent US20110038885A1 (priority 2007, published 2011) are described below.

This data set is described as follows: general procedure: Fmoc solid-phase peptide synthesis; Rink Amide MBHA resin (0.58 mmol/g or 0.78 mmol/g); Wang resin for C-terminal acids; DIC/HOBt. The settings on record: whole synthesis; for purity (crude or final not stated): scale of the general procedure 0.090 mmol.

Numbered stars: 1 amine (or outer) side, 2 acyl side, 3 side chain; on linkers, the order of the positions; unused ones are H or OH. Bridge positions count the residues as written; N and C are the ends. Square brackets hold non-standard residues; d marks the D form. Side chains are listed from the residue outwards. * marks the point of attachment. γGlu = O=C(O)[C@H](CCC(=O)[*:2])N[*:1]; Diglycolyl = O=C(COCC(=O)[*:2])[*:1]; Glutaryl = O=C(CCCC(=O)[*:2])[*:1]; d(pGlu) = O=C1CC[C@H](C(=O)O)N1; pGlu = O=C1CC[C@@H](C(=O)O)N1; Suc = O=C(CCC(=O)[*:2])[*:1]; Lauroyl = CCCCCCCCCCCC(=O)*; Decanoyl = CCCCCCCCCC(=O)*; Isobutyryl = CC(C)C(=O)*; Octanoyl = CCCCCCCC(=O)*; Orn = NCCC[C@H](N)C(=O)O; Dab = NCC[C@H](N)C(=O)O; Dap = NC[C@H](N)C(=O)O; Hexanoyl = CCCCCC(=O)*; AEEA = NCCOCCOCC(=O)O; Aoc = NCCCCCCCC(=O)O; Piv = CC(C)(C)C(=O)*; βAla = NCCC(=O)O

As for “Ac-CLDPKQKWI[dQ]C-NH2 (disulfide 1-11; SMILES CC[C@H](C)[C@@H]1NC(=O)[C@H](Cc2c[nH]c3ccccc23)NC(=O)[C@H](CCCCN)NC(=O)[C@H](CCC(N)=O)NC(=O)[C@H](CCCCN)NC(=O)[C@@H]2CCCN2C(=O)[C@H](CC(=O)O)NC(=O)[C@H](CC(C)C)NC(=O)[C@@H](NC(C)=O)CSSC[C@@H](C(N)=O)NC(=O)[C@@H](CCC(N)=O)NC1=O)”, the “purity (crude or final not stated)” value (analytical HPLC) was determined as 86.5%. Take “H-[dC][dQ][dI][dW][dK][dQ][dK][dP][dD][dL][dC][dV][dE][Aoc]-OH (disulfide 1-11; SMILES CC[C@@H](C)[C@H]1NC(=O)[C@@H](CCC(N)=O)NC(=O)[C@H](N)CSSC[C@H](C(=O)N[C@@H](C(=O)N[C@H](CCC(=O)O)C(=O)NCCCCCCCC(=O)O)C(C)C)NC(=O)[C@@H](CC(C)C)NC(=O)[C@@H](CC(=O)O)NC(=O)[C@H]2CCCN2C(=O)[C@@H](CCCCN)NC(=O)[C@@H](CCC(N)=O)NC(=O)[C@@H](CCCCN)NC(=O)[C@@H](Cc2c[nH]c3ccccc23)NC1=O)”: the “purity (crude or final not stated)” value (analytical HPLC) was 99%. Consider “[pGlu]CKWIQC-NH2 (disulfide 2-7; SMILES CC[C@H](C)[C@@H]1NC(=O)[C@H](Cc2c[nH]c3ccccc23)NC(=O)[C@H](CCCCN)NC(=O)[C@@H](NC(=O)[C@@H]2CCC(=O)N2)CSSC[C@@H](C(N)=O)NC(=O)[C@H](CCC(N)=O)NC1=O)”, for which, under “analytical HPLC”, the “purity (crude or final not stated)” value was found to be 89.5%. On to “H-[dC][dQ][dI][dW][dK][dQ][dK][dP][dD][dL][dC][AEEA]K(Octanoyl)-OH (disulfide 1-11; SMILES CCCCCCCC(=O)NCCCC[C@H](NC(=O)COCCOCCNC(=O)[C@H]1CSSC[C@@H](N)C(=O)N[C@H](CCC(N)=O)C(=O)N[C@H]([C@H](C)CC)C(=O)N[C@H](Cc2c[nH]c3ccccc23)C(=O)N[C@H](CCCCN)C(=O)N[C@H](CCC(N)=O)C(=O)N[C@H](CCCCN)C(=O)N2CCC[C@@H]2C(=O)N[C@H](CC(=O)O)C(=O)N[C@H](CC(C)C)C(=O)N1)C(=O)O)”, for which, under “analytical HPLC”, the “purity (crude or final not stated)” value was determined as 99%.

As for “KWIQ[Orn]-NH2 (linker N-5 via Glutaryl; SMILES CC[C@H](C)[C@@H]1NC(=O)[C@H](Cc2c[nH]c3ccccc23)NC(=O)[C@H](CCCCN)NC(=O)CCCC(=O)NCCC[C@@H](C(N)=O)NC(=O)[C@H](CCC(N)=O)NC1=O)”, the “final HPLC purity” value (analytical HPLC, scale 0.09 mmol) turned out to be 99%. For the same substance, under “scale 0.09 mmol”, the crude mass result is given as “˜65 mg” and the isolated mass was determined as 12 mg. Consider “Isobutyryl-KKWIQD-NH2 (lactam 1-6; SMILES CC[C@H](C)[C@@H]1NC(=O)[C@H](Cc2c[nH]c3ccccc23)NC(=O)[C@H](CCCCN)NC(=O)[C@@H](NC(=O)C(C)C)CCCCNC(=O)C[C@@H](C(N)=O)NC(=O)[C@H](CCC(N)=O)NC1=O)”, for which the “purity (crude or final not stated)” value (analytical HPLC) was 77.5%. The same measure, in the same setting: as for “H-K([γGlu-Decanoyl])CLDPKQKWIQC-NH2 (disulfide 2-12; SMILES CCCCCCCCCC(=O)N[C@@H](CCC(=O)NCCCC[C@H](N)C(=O)N[C@H]1CSSC[C@@H](C(N)=O)NC(=O)[C@H](CCC(N)=O)NC(=O)[C@H]([C@@H](C)CC)NC(=O)[C@H](Cc2c[nH]c3ccccc23)NC(=O)[C@H](CCCCN)NC(=O)[C@H](CCC(N)=O)NC(=O)[C@H](CCCCN)NC(=O)[C@@H]2CCCN2C(=O)[C@H](CC(=O)O)NC(=O)[C@H](CC(C)C)NC1=O)C(=O)O)”, the figure is 94%; as for “Ac-CKWIQC-NH2 (disulfide 1-6; SMILES CC[C@H](C)[C@@H]1NC(=O)[C@H](Cc2c[nH]c3ccccc23)NC(=O)[C@H](CCCCN)NC(=O)[C@@H](NC(C)=O)CSSC[C@@H](C(N)=O)NC(=O)[C@H](CCC(N)=O)NC1=O)”, 94.3%; as for “[βAla][dQ][dI][dW][dK][dQ][dK][dP][dD][dL][dD]-NH2 (lactam N-11; SMILES CC[C@@H](C)[C@H]1NC(=O)[C@@H](CCC(N)=O)NC(=O)CCNC(=O)C[C@H](C(N)=O)NC(=O)[C@@H](CC(C)C)NC(=O)[C@@H](CC(=O)O)NC(=O)[C@H]2CCCN2C(=O)[C@@H](CCCCN)NC(=O)[C@@H](CCC(N)=O)NC(=O)[C@@H](CCCCN)NC(=O)[C@@H](Cc2c[nH]c3ccccc23)NC1=O)”, 96%.

In the case of “KWIQ[Dab]-NH2 (linker N-5 via Diglycolyl; SMILES CC[C@H](C)[C@@H]1NC(=O)[C@H](Cc2c[nH]c3ccccc23)NC(=O)[C@H](CCCCN)NC(=O)COCC(=O)NCC[C@@H](C(N)=O)NC(=O)[C@H](CCC(N)=O)NC1=O)”, under “analytical HPLC”, the “purity (crude or final not stated)” value worked out at 99.9%.

In the case of “Ac-C[dK]WIQC-NH2 (disulfide 1-6; SMILES CC[C@H](C)[C@@H]1NC(=O)[C@H](Cc2c[nH]c3ccccc23)NC(=O)[C@@H](CCCCN)NC(=O)[C@@H](NC(C)=O)CSSC[C@@H](C(N)=O)NC(=O)[C@H](CCC(N)=O)NC1=O)”, the “purity (crude or final not stated)” value (analytical HPLC) is 99%. As to “Isobutyryl-EKWIQ[Orn]-NH2 (lactam 1-6; SMILES CC[C@H](C)[C@@H]1NC(=O)[C@H](Cc2c[nH]c3ccccc23)NC(=O)[C@H](CCCCN)NC(=O)[C@@H](NC(=O)C(C)C)CCC(=O)NCCC[C@@H](C(N)=O)NC(=O)[C@H](CCC(N)=O)NC1=O)”, the “purity (crude or final not stated)” value (analytical HPLC) is listed as 88.3%. As to “Ac-[dC][dQ][dI][dW][dK][dQ][dK][dP][dD][dL][dC]-NH2 (disulfide 1-11; SMILES CC[C@@H](C)[C@H]1NC(=O)[C@@H](CCC(N)=O)NC(=O)[C@H](NC(C)=O)CSSC[C@H](C(N)=O)NC(=O)[C@@H](CC(C)C)NC(=O)[C@@H](CC(=O)O)NC(=O)[C@H]2CCCN2C(=O)[C@@H](CCCCN)NC(=O)[C@@H](CCC(N)=O)NC(=O)[C@@H](CCCCN)NC(=O)[C@@H](Cc2c[nH]c3ccccc23)NC1=O)”, where the note is “analytical HPLC”, the “purity (crude or final not stated)” value was 99%.

In the case of “H-[dC]LDPKQKWIQ[dC]-NH2 (disulfide 1-11; SMILES CC[C@H](C)[C@@H]1NC(=O)[C@H](Cc2c[nH]c3ccccc23)NC(=O)[C@H](CCCCN)NC(=O)[C@H](CCC(N)=O)NC(=O)[C@H](CCCCN)NC(=O)[C@@H]2CCCN2C(=O)[C@H](CC(=O)O)NC(=O)[C@H](CC(C)C)NC(=O)[C@H](N)CSSC[C@H](C(N)=O)NC(=O)[C@H](CCC(N)=O)NC1=O)”, the “purity (crude or final not stated)” value (analytical HPLC) is on record as 94.1%.

On to “H-KCWIQC-NH2 (disulfide 2-6; SMILES CC[C@H](C)[C@@H]1NC(=O)[C@H](Cc2c[nH]c3ccccc23)NC(=O)[C@@H](NC(=O)[C@@H](N)CCCCN)CSSC[C@@H](C(N)=O)NC(=O)[C@H](CCC(N)=O)NC1=O)”, for which, for the setting “analytical HPLC”, the “purity (crude or final not stated)” value was found to be 96.5%.

As to “Hexanoyl-CKWIQC-NH2 (disulfide 1-6; SMILES CCCCCC(=O)N[C@H]1CSSC[C@@H](C(N)=O)NC(=O)[C@H](CCC(N)=O)NC(=O)[C@H]([C@@H](C)CC)NC(=O)[C@H](Cc2c[nH]c3ccccc23)NC(=O)[C@H](CCCCN)NC1=O)”, the “purity (crude or final not stated)” value (analytical HPLC) stood at 98%. Regarding “[d(pGlu)]CKWIQC-NH2 (disulfide 2-7; SMILES CC[C@H](C)[C@@H]1NC(=O)[C@H](Cc2c[nH]c3ccccc23)NC(=O)[C@H](CCCCN)NC(=O)[C@@H](NC(=O)[C@H]2CCC(=O)N2)CSSC[C@@H](C(N)=O)NC(=O)[C@H](CCC(N)=O)NC1=O)”, the “purity (crude or final not stated)” value (analytical HPLC) was 93.5%.

In the case of “Lauroyl-CKWIQC-NH2 (disulfide 1-6; SMILES CCCCCCCCCCCC(=O)N[C@H]1CSSC[C@@H](C(N)=O)NC(=O)[C@H](CCC(N)=O)NC(=O)[C@H]([C@@H](C)CC)NC(=O)[C@H](Cc2c[nH]c3ccccc23)NC(=O)[C@H](CCCCN)NC1=O)”, the “purity (crude or final not stated)” value (analytical HPLC) is reported as 99.9%. As to “KWIQ[Dap]-NH2 (linker N-5 via Suc; SMILES CC[C@H](C)[C@@H]1NC(=O)[C@H](Cc2c[nH]c3ccccc23)NC(=O)[C@H](CCCCN)NC(=O)CCC(=O)NC[C@@H](C(N)=O)NC(=O)[C@H](CCC(N)=O)NC1=O)”, the “purity (crude or final not stated)” value (analytical HPLC) worked out at 97.2%. Still for that read-out and setting: next, “KWIQ[Orn]-NH2 (linker N-5 via Diglycolyl; SMILES CC[C@H](C)[C@@H]1NC(=O)[C@H](Cc2c[nH]c3ccccc23)NC(=O)[C@H](CCCCN)NC(=O)COCC(=O)NCCC[C@@H](C(N)=O)NC(=O)[C@H](CCC(N)=O)NC1=O)”: 99.1%; “Piv-CKWIQC-NH2 (disulfide 1-6; SMILES CC[C@H](C)[C@@H]1NC(=O)[C@H](Cc2c[nH]c3ccccc23)NC(=O)[C@H](CCCCN)NC(=O)[C@@H](NC(=O)C(C)(C)C)CSSC[C@@H](C(N)=O)NC(=O)[C@H](CCC(N)=O)NC1=O)”: 93%. Same read-out and setting: as for “Ac-[Dap]KWIQE-NH2 (lactam 1-6; SMILES CC[C@H](C)[C@@H]1NC(=O)[C@H](Cc2c[nH]c3ccccc23)NC(=O)[C@H](CCCCN)NC(=O)[C@@H](NC(C)=O)CNC(=O)CC[C@@H](C(N)=O)NC(=O)[C@H](CCC(N)=O)NC1=O)”, the figure is 96.4%; as for “[Aoc]KWIQE-NH2 (lactam N-6; SMILES CC[C@H](C)[C@@H]1NC(=O)[C@H](Cc2c[nH]c3ccccc23)NC(=O)[C@H](CCCCN)NC(=O)CCCCCCCNC(=O)CC[C@@H](C(N)=O)NC(=O)[C@H](CCC(N)=O)NC1=O)”, 91.8%. The same measure, in the same setting: as for “Isobutyryl-[Dab]KWIQD-NH2 (lactam 1-6; SMILES CC[C@H](C)[C@@H]1NC(=O)[C@H](Cc2c[nH]c3ccccc23)NC(=O)[C@H](CCCCN)NC(=O)[C@@H](NC(=O)C(C)C)CCNC(=O)C[C@@H](C(N)=O)NC(=O)[C@H](CCC(N)=O)NC1=O)”, the figure is 83.3%. For the substance “H-KWCIQC-NH2 (disulfide 3-6; SMILES CC[C@H](C)[C@@H]1NC(=O)[C@@H](NC(=O)[C@H](Cc2c[nH]c3ccccc23)NC(=O)[C@@H](N)CCCCN)CSSC[C@@H](C(N)=O)NC(=O)[C@H](CCC(N)=O)NC1=O)”, the “purity (crude or final not stated)” value (analytical HPLC) was determined as 90%. Still for that read-out and setting: next, “Ac-CLDPK[dQ]KWIQC-NH2 (disulfide 1-11; SMILES CC[C@H](C)[C@@H]1NC(=O)[C@H](Cc2c[nH]c3ccccc23)NC(=O)[C@H](CCCCN)NC(=O)[C@@H](CCC(N)=O)NC(=O)[C@H](CCCCN)NC(=O)[C@@H]2CCCN2C(=O)[C@H](CC(=O)O)NC(=O)[C@H](CC(C)C)NC(=O)[C@@H](NC(C)=O)CSSC[C@@H](C(N)=O)NC(=O)[C@H](CCC(N)=O)NC1=O)”: 90%.
